Measured values taken from article PMC7819943, “Rice protein-binding microarrays: a tool to detect cis-acting elements near promoter regions in rice”.
This is one part of the list.

Amino acid sequences for entries named in this document (tags omitted).
UniProt Q0JBA9, entry or part of it: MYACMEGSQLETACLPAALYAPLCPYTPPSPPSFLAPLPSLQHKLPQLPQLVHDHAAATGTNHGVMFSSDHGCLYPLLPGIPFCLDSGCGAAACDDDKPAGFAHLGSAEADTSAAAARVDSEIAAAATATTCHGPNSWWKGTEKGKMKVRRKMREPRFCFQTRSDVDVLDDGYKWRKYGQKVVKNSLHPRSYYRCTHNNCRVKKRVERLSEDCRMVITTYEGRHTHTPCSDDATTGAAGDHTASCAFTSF

target: OsWRKY34 (Oryza sativa, UniProt Q0JBA9 1-250); experiment: protein-binding microarray (RPBM); PBS, 2% BSA, 51.3 ng/ul salmon testes DNA, 50 uM zinc acetate, 200 nM TF, 25 C, 1 h; high values mean tight binding; details: protein: recombinant; tags: N-terminal polyhistidine and DsRed monomer fusion (pET32a); label: CyDye5-dUTP incorporated in the synthesized complementary strand; 3' TTTTT single-stranded linker to array surface; dsDNA, one strand shown
Procedure, shortened: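 In PBS with 2% BSA, salmon testes DNA and 50 µM zinc acetate, 200 nM protein was incubated on a custom Agilent array at 25 °C for 1 h and then washed off. The array had been made double-stranded by primer extension with Cy5-dUTP and blocked with 2% BSA. The proteins were transcription factors fused N-terminally to polyhistidine and DsRed, expressed in E. coli BL21-CodonPlus and purified on Ni–NTA. The binding signal is per-feature fluorescence intensity (arbitrary units) from an Axon 4000B scanner.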

**Q.** “CATCCGCCGCTCCTACTCTGGGCCCATGCTTCTGGCCTGACGGAGTCACCTAGTGCAG” was tested. Which binding signal did it give?
**A.** Its binding signal is 10100 fluorescence intensity (a.u.).

**Q.** For “GTGAGTGTTTTATCTTTGTGGCTTACTTTGTCTGGGTCGCCGGAGTCACCTAGTGCAG”, which binding signal is on record?
**A.** Its binding signal is 8860 fluorescence intensity (a.u.).

**Q.** With “AGTTGCTTTCGGTCCTGTTTGCTCCCTCGCACTCTCTCGACGGAGTCACCTAGTGCAG” as the sequence, how does the binding signal read?
**A.** The binding signal was 11000 fluorescence intensity (a.u.).

**Q.** Which binding signal does the source give for “TTAATATACCACTACTTACCTTTTCATTGCTTTTTCTAAACGGAGTCACCTAGTGCAG” here?
**A.** The binding signal was 9070 fluorescence intensity (a.u.).

**Q.** With “ATATTTAAAAAAGTCAACGGCGTCAAACATTTTGAGATAGCGGAGTCACCTAGTGCAG” as the sequence, how does the binding signal read?
**A.** Its binding signal is 9320 fluorescence intensity (a.u.).

**Q.** “TAAAATTTTACTCTAGCTTTCAACTCACTTTATTTTATTACGGAGTCACCTAGTGCAG” was tested. Which binding signal did it give?
**A.** Its binding signal is 9940 fluorescence intensity (a.u.).

**Q.** With “CTATTATCTCCAGGGTGGGGTGGGGCCCATACGGCCAGGACGGAGTCACCTAGTGCAG” as the sequence, how does the binding signal read?
**A.** The binding signal was 10400 fluorescence intensity (a.u.).

**Q.** For “GGTCCTATCTTTCTCACACACATATAGCCTGTGTGTACGTCGGAGTCACCTAGTGCAG”, which binding signal is on record?
**A.** The binding signal was 8170 fluorescence intensity (a.u.).

**Q.** With “TATTTCTGTCCAGTCGCCCGCTCGTATTATTTTGGAGCAACGGAGTCACCTAGTGCAG” as the sequence, how does the binding signal read?
**A.** Its binding signal is 10100 fluorescence intensity (a.u.).

**Q.** “TAAATTTTTTCAAACTTGGCATTCTTCTCTCACGACTAAACGGAGTCACCTAGTGCAG” was tested. Which binding signal did it give?
**A.** Its binding signal is 8180 fluorescence intensity (a.u.).

**Q.** How did the binding signal turn out when “GCTCGCTGGATCTCTCCTCTTTCTCTCTCGCACCCTCTCCCGGAGTCACCTAGTGCAG” was run?
**A.** Its binding signal is 8030 fluorescence intensity (a.u.).

**Q.** With “GAAGCCCTGGTTCGAGCTCTGCTCTGCTCTGTGTTAACCACGGAGTCACCTAGTGCAG” as the sequence, how does the binding signal read?
**A.** Its binding signal is 8070 fluorescence intensity (a.u.).

**Q.** How did the binding signal turn out when “ATCCATCCATACAATGTGCATTTTTTTTGTTAGTGTTCTACGGAGTCACCTAGTGCAG” was run?
**A.** Its binding signal is 9950 fluorescence intensity (a.u.).

**Q.** For “CCATTTGTTTCTCTCTGGTGCAGTACTGCAGTGTACACAACGGAGTCACCTAGTGCAG”, which binding signal is on record?
**A.** The binding signal was 8750 fluorescence intensity (a.u.).

**Q.** “TCCTCGATTGATCCGTTTCTTTATATACACACAGTACAACCGGAGTCACCTAGTGCAG” was tested. Which binding signal did it give?
**A.** Its binding signal is 9270 fluorescence intensity (a.u.).

**Q.** Which binding signal does the source give for “GTTCTACAACTTTGTTTTTTATGATTTCTTCATTTCAAATCGGAGTCACCTAGTGCAG” here?
**A.** Its binding signal is 8480 fluorescence intensity (a.u.).

**Q.** For “AGTAACATCAATTTTATATGTAATCTTTTTTTTATTATTACGGAGTCACCTAGTGCAG”, which binding signal is on record?
**A.** The binding signal was 8230 fluorescence intensity (a.u.).

**Q.** With “CTACTGCTCCTACGCGCACGCCCCAACCCATCGGCGAATTCGGAGTCACCTAGTGCAG” as the sequence, how does the binding signal read?
**A.** Its binding signal is 10400 fluorescence intensity (a.u.).

**Q.** For “GTATTTCCATTTCCTCTCTCTTCGCGGAGACTTATCGTCTCGGAGTCACCTAGTGCAG”, which binding signal is on record?
**A.** The binding signal was 10600 fluorescence intensity (a.u.).

**Q.** For “TGATATCTTTTTCTTTAATGACTTTCCGTGTTTTCAACGTCGGAGTCACCTAGTGCAG”, which binding signal is on record?
**A.** Its binding signal is 8090 fluorescence intensity (a.u.).

**Q.** With “GATTATATTTGTTATACATTTTAGACCACCCTAATTTTCTCGGAGTCACCTAGTGCAG” as the sequence, how does the binding signal read?
**A.** The binding signal was 9820 fluorescence intensity (a.u.).

**Q.** “AGGCCACACTCAACCTTTTTAACAAGCTAATCTCATCGTACGGAGTCACCTAGTGCAG” was tested. Which binding signal did it give?
**A.** Its binding signal is 8090 fluorescence intensity (a.u.).

**Q.** How did the binding signal turn out when “GGGGCCATCTTTTTTGGGGTTAAATTTGGTCCAGAGTTGACGGAGTCACCTAGTGCAG” was run?
**A.** The binding signal was 11200 fluorescence intensity (a.u.).

**Q.** “CCTATCACCACCCACCTACTGCGCGTTTCTCCAGAGGCCTCGGAGTCACCTAGTGCAG” was tested. Which binding signal did it give?
**A.** Its binding signal is 8300 fluorescence intensity (a.u.).

**Q.** “GGTTGAGGAGATTGCCCTCGGTTTTGTTAATGTTGCAAATCGGAGTCACCTAGTGCAG” was tested. Which binding signal did it give?
**A.** The binding signal was 8370 fluorescence intensity (a.u.).

**Q.** With “TTTCCTTCGGCGTTTTTTCATCCATGACCTGGTACATGACCGGAGTCACCTAGTGCAG” as the sequence, how does the binding signal read?
**A.** Its binding signal is 9980 fluorescence intensity (a.u.).

**Q.** Which binding signal does the source give for “GACGACCAACCCCTGGCTGCTACGCGATCCGCAATAATAACGGAGTCACCTAGTGCAG” here?
**A.** Its binding signal is 8420 fluorescence intensity (a.u.).

**Q.** Which binding signal does the source give for “TATCCTCGGTCCAGCCGTCTCTTCTCCCAAGTTCTGAAGTCGGAGTCACCTAGTGCAG” here?
**A.** The binding signal was 11400 fluorescence intensity (a.u.).

**Q.** “CTCCCATCCTCCATCGCACTCACTCCTCACCTCGATCCATCGGAGTCACCTAGTGCAG” was tested. Which binding signal did it give?
**A.** Its binding signal is 8790 fluorescence intensity (a.u.).

**Q.** For “CTCGCTGGAATCGTGGGTGTGGGGTGGGTTCTGAGGATTCCGGAGTCACCTAGTGCAG”, which binding signal is on record?
**A.** Its binding signal is 16000 fluorescence intensity (a.u.).

**Q.** “ATTTCCTAACACATGTGTGTTGCTCCACTCTGTTTTTTTTCGGAGTCACCTAGTGCAG” was tested. Which binding signal did it give?
**A.** The binding signal was 9150 fluorescence intensity (a.u.).

**Q.** “ACGACGCTCTCACGCTGGTGTCATGTAGCTTTTTTTTTTCCGGAGTCACCTAGTGCAG” was tested. Which binding signal did it give?
**A.** The binding signal was 13300 fluorescence intensity (a.u.).

**Q.** For “GTCGTCTTCTACCTCCATATGCTCTGCTGCCTCTTCCATTCGGAGTCACCTAGTGCAG”, which binding signal is on record?
**A.** Its binding signal is 11200 fluorescence intensity (a.u.).

**Q.** For “CGGTATTTCGGTATATAGCAGTCTTTTTTTTTAAAAAAATCGGAGTCACCTAGTGCAG”, which binding signal is on record?
**A.** The binding signal was 9640 fluorescence intensity (a.u.).

**Q.** How did the binding signal turn out when “CCCATCCACCAGCTCACAATGTCATGTCACTATGCATCTCCGGAGTCACCTAGTGCAG” was run?
**A.** The binding signal was 9370 fluorescence intensity (a.u.).

**Q.** With “CTTCTCCACCGTCTCCATGGCTGTCCTGTCCGGCCCCTGGCGGAGTCACCTAGTGCAG” as the sequence, how does the binding signal read?
**A.** The binding signal was 8880 fluorescence intensity (a.u.).

**Q.** With “GATCTCATGTGATTTGCTGTTGCACTCGGCGGCTATCTTTCGGAGTCACCTAGTGCAG” as the sequence, how does the binding signal read?
**A.** The binding signal was 8240 fluorescence intensity (a.u.).

**Q.** “GTCTTATTCAAAAAATTTTGGAATTATTATTTATTTTGTTCGGAGTCACCTAGTGCAG” was tested. Which binding signal did it give?
**A.** The binding signal was 8180 fluorescence intensity (a.u.).

**Q.** Which binding signal does the source give for “AGCCACCATTACCACCTATTCTGTTTGTGCAAAACCAACCCGGAGTCACCTAGTGCAG” here?
**A.** The binding signal was 9600 fluorescence intensity (a.u.).

**Q.** With “CCATTCACGCGCGGAGACTTCGCTCCTCCTCCTCGGCGTCCGGAGTCACCTAGTGCAG” as the sequence, how does the binding signal read?
**A.** The binding signal was 8660 fluorescence intensity (a.u.).

**Q.** “CATGTCTTCGCTGTCTCGGGCGCTCGCCATCTTCCCGACCCGGAGTCACCTAGTGCAG” was tested. Which binding signal did it give?
**A.** Its binding signal is 11700 fluorescence intensity (a.u.).

**Q.** Which binding signal does the source give for “AGCTGTTGACTTTGTTAGGGCCATCAATTGGGTCAATTTCCGGAGTCACCTAGTGCAG” here?
**A.** Its binding signal is 11300 fluorescence intensity (a.u.).

**Q.** With “TAAGTCTTGGCTGGTTGGTCTTGGTCTTGTGGTGCCTTTTCGGAGTCACCTAGTGCAG” as the sequence, how does the binding signal read?
**A.** Its binding signal is 8530 fluorescence intensity (a.u.).

**Q.** Which binding signal does the source give for “ATCCGCGCGCGTGTGGCGCGCTGGGTGGGTGAGGCGCCGACGGAGTCACCTAGTGCAG” here?
**A.** Its binding signal is 8350 fluorescence intensity (a.u.).

**Q.** Which binding signal does the source give for “CCGGAGAGGCGGTGGTGTTTGGATCGGGAGGGGAGAGATGCGGAGTCACCTAGTGCAG” here?
**A.** The binding signal was 11500 fluorescence intensity (a.u.).

**Q.** With “GTTGGGTTGGGTCGAGTTGGAGTGGGCCTTCTTATCTTGACGGAGTCACCTAGTGCAG” as the sequence, how does the binding signal read?
**A.** Its binding signal is 15400 fluorescence intensity (a.u.).

**Q.** How did the binding signal turn out when “TCTATTTTTTTTATTTTTTAATTCCTAATTTTAGTTATTCCGGAGTCACCTAGTGCAG” was run?
**A.** Its binding signal is 8750 fluorescence intensity (a.u.).

**Q.** With “GTTTTCTGTGTTATTGGCCAAAGTTGTATTATGGAGACACCGGAGTCACCTAGTGCAG” as the sequence, how does the binding signal read?
**A.** The binding signal was 10900 fluorescence intensity (a.u.).

**Q.** Which binding signal does the source give for “CTTGCATTCATATTGCACTACTATAGTACTATAAATTTTCCGGAGTCACCTAGTGCAG” here?
**A.** The binding signal was 8880 fluorescence intensity (a.u.).

**Q.** For “TGACTTTTAGTCAACGCCATACGAAAACAGGCTAATTCCTCGGAGTCACCTAGTGCAG”, which binding signal is on record?
**A.** The binding signal was 9080 fluorescence intensity (a.u.).

**Q.** For “ATTCCAGTAAGTCTCCATTCCCTTCCATCATCAACAATTACGGAGTCACCTAGTGCAG”, which binding signal is on record?
**A.** The binding signal was 8240 fluorescence intensity (a.u.).

**Q.** With “TGGTCTGGTACTCTCTGGTGGTGGTGGTGGTGGTCGCCGTCGGAGTCACCTAGTGCAG” as the sequence, how does the binding signal read?
**A.** Its binding signal is 14700 fluorescence intensity (a.u.).

**Q.** “TGCGTTCTGGTTCGTCCACCCTGTGCAAGCTTGTGTCATGCGGAGTCACCTAGTGCAG” was tested. Which binding signal did it give?
**A.** The binding signal was 8660 fluorescence intensity (a.u.).

**Q.** Which binding signal does the source give for “TTATCGCACATTCGCATATATATTTGTTATTTTTGTTACACGGAGTCACCTAGTGCAG” here?
**A.** The binding signal was 8040 fluorescence intensity (a.u.).
